According to PMC10182996:
Results are given in words; binding and its absence hold for the method and conditions named. Some entries that bind do so weakly or less than the wild type.

Protein sequences, listed by entry. Tags and fused reporters are not part of them.
UniProt O00401: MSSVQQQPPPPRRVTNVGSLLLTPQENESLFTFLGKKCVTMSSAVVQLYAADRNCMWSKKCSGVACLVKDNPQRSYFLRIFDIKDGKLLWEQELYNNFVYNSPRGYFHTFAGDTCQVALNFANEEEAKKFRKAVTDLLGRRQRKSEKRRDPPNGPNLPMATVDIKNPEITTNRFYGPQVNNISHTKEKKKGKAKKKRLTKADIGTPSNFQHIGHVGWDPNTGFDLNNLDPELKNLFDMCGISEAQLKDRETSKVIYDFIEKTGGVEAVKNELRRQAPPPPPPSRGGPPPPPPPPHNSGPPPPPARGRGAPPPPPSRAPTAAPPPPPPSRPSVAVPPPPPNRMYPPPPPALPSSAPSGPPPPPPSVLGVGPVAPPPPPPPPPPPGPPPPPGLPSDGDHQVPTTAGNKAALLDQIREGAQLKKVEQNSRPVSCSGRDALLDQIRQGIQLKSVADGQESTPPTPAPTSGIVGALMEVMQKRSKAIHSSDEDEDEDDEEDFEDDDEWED
UniProt O43516: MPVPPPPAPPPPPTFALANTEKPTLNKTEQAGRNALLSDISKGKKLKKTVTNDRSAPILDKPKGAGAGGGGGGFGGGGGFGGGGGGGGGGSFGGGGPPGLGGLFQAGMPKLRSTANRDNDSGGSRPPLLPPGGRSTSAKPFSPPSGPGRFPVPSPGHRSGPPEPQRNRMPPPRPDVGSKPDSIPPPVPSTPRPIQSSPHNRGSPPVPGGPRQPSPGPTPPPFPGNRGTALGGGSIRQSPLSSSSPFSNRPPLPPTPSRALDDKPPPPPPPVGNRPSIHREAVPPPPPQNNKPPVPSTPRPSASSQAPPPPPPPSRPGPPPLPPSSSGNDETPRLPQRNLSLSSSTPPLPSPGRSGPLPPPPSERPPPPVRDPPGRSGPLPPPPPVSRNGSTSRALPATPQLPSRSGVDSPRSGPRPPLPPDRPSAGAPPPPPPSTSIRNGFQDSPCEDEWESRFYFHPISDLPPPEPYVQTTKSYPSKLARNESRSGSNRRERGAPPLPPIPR

Target: GFP-N-WASP (wild type) (human) (UniProt O00401)
Experiment: recruitment to mitochondria-targeted bait (confocal microscopy); MitoCPn0677-C co-expressed in HEp-2 cells with Wip and N-WASP together

- binding: binds
Substance: GFP-Wip (from UniProt O43516 1-503)
